Reference: article PMC12423330
These are yes or no findings as the source states them, for the method shown. In cells and extracts the contact can be indirect. These calls come from enrichment with a bait or labelling near it, and not all partners need be listed.

Protein sequences, listed by entry. Tags and fused reporters are not part of them.
UniProt Q8BRC6: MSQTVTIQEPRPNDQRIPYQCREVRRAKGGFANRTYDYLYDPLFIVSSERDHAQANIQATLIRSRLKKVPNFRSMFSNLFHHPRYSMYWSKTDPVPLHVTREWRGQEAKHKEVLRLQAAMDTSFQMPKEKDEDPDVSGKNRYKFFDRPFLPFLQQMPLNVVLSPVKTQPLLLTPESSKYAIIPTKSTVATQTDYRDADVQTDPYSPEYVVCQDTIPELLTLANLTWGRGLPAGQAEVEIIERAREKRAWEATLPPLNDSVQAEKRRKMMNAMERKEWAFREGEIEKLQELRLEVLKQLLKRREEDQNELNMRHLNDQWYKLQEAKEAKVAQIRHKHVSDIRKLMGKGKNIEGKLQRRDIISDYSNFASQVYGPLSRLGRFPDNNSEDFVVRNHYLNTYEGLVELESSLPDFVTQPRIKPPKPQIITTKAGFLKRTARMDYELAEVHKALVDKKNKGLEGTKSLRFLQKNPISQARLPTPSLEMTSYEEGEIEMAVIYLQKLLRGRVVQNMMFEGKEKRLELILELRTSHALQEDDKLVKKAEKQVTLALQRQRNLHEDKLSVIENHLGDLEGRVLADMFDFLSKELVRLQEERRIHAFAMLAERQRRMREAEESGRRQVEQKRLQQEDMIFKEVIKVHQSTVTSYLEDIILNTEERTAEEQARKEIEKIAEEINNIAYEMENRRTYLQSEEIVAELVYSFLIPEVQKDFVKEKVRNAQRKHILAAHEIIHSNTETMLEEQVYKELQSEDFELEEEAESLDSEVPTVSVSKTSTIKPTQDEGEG
UniProt A0JP43: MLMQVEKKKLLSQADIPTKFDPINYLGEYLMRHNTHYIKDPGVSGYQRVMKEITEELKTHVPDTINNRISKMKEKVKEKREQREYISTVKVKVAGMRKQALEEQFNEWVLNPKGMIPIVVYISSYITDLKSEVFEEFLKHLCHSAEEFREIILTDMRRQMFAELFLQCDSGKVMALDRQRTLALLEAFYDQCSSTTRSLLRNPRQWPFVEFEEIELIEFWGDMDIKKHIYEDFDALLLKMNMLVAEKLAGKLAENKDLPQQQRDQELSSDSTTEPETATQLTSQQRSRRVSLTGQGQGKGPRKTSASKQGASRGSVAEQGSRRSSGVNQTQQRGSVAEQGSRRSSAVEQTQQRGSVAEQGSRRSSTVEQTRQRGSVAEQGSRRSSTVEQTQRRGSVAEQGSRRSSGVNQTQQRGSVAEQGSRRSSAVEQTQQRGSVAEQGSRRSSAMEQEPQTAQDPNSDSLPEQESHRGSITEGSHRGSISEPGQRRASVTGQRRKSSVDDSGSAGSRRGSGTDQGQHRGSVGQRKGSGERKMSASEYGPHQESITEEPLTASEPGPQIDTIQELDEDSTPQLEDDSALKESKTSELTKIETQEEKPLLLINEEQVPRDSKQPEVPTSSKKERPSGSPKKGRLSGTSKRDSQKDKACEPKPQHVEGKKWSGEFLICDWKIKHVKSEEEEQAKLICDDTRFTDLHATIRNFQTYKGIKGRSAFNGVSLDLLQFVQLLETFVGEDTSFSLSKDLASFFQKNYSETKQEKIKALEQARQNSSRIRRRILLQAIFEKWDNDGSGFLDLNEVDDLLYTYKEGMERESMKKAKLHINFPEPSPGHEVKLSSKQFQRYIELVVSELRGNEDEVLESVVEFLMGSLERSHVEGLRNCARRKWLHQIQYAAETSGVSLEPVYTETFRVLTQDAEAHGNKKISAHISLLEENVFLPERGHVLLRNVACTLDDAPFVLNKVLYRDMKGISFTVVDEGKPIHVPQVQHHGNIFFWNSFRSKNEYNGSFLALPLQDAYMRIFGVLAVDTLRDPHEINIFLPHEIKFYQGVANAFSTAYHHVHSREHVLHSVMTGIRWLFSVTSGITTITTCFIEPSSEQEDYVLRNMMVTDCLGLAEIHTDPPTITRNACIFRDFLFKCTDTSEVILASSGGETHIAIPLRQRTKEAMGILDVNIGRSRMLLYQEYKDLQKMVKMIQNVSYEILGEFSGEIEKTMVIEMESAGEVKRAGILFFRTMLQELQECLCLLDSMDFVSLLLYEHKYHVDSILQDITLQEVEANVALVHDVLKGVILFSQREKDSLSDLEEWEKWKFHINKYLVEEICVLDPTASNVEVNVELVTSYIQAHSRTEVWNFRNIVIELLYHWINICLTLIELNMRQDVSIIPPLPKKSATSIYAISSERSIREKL
UniProt G3UYQ4: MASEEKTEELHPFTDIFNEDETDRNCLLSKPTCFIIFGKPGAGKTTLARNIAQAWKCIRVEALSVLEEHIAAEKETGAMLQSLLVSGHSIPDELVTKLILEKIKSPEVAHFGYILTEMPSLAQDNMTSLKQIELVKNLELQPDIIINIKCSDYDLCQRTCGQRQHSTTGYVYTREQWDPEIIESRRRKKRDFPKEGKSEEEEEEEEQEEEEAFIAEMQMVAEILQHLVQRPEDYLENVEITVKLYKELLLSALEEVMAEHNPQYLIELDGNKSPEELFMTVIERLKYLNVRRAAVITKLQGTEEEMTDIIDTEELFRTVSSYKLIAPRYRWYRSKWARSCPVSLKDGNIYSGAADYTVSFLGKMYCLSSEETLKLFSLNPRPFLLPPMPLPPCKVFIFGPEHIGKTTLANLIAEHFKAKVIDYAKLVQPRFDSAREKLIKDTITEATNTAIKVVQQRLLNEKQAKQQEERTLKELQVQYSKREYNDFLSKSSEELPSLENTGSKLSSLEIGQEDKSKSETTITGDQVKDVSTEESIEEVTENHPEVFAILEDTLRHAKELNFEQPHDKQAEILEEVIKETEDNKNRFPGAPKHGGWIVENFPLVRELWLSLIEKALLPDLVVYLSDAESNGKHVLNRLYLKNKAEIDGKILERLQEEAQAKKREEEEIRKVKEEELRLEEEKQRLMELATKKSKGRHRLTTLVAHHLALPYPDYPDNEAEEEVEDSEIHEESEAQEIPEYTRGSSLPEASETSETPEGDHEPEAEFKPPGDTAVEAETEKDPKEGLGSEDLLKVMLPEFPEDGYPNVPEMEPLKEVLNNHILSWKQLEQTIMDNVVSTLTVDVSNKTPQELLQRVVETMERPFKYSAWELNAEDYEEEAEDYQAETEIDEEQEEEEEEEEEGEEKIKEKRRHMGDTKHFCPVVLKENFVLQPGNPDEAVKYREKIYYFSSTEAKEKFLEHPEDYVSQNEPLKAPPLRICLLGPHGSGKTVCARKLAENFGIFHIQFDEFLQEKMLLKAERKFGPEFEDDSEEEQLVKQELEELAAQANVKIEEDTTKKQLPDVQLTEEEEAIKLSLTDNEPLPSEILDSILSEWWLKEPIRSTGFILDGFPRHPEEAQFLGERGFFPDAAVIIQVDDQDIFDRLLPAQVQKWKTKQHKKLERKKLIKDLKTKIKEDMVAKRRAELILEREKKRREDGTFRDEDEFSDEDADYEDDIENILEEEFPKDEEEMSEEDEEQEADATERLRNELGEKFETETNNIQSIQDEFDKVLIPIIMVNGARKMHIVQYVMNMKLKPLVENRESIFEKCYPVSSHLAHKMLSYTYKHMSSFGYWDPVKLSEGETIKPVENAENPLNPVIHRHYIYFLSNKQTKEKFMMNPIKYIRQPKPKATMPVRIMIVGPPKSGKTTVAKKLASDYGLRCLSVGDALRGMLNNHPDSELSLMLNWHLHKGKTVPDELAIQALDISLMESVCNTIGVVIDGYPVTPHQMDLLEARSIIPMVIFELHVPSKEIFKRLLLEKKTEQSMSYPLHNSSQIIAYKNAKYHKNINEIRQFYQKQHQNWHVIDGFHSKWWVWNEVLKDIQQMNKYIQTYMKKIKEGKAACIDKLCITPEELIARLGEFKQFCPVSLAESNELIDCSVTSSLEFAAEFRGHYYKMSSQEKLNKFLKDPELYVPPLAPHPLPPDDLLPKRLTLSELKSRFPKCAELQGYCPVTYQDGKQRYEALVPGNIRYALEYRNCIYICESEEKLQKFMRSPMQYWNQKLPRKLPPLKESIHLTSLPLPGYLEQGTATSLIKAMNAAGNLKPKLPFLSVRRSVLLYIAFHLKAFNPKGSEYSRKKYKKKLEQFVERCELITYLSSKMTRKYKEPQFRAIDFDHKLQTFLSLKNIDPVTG
UniProt Q9D2H2: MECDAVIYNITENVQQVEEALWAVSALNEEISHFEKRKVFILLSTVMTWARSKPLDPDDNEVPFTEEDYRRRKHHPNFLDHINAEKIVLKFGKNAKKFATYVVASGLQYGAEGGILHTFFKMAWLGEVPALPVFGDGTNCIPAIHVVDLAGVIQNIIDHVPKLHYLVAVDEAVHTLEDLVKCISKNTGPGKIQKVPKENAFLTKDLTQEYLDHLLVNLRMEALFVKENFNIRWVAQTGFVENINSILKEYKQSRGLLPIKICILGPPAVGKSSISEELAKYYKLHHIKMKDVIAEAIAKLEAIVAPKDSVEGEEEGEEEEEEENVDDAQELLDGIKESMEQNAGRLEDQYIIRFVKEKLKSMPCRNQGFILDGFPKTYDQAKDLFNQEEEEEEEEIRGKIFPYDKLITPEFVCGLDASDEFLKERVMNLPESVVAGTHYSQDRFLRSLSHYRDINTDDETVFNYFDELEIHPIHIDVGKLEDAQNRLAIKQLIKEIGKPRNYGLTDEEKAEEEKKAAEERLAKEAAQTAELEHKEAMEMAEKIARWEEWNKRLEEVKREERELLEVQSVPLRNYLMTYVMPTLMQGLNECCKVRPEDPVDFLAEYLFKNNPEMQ

Legend:
[1] = target: CFAP91-BioID2-3×FLAG (mouse) (UniProt Q8BRC6); test: proximity labelling; BioID2 on CFAP91 in mature cauda epididymal spermatozoa of Cfap91-/- TG males, 250 μM biotin, 16 h, 37 °C; lysis in 0.4% SDS sample buffer; streptavidin pull-down; eluates analysed by immunoblotting and MS; WT spermatozoa as control
[2] = target: CFAP91-BioID2-3×FLAG (mouse) (UniProt Q8BRC6); test: affinity purification with mass spectrometry; IP with an anti-FLAG antibody from testis lysate of Cfap91-/- TG males, WT males as control; Dynabeads Co-Immunoprecipitation Kit; LC-MS/MS
[3] = target: CFAP91-BioID2-3×FLAG (mouse) (UniProt Q8BRC6); test: as above; remark: listed apart in the source

| binding [1] | binding [2] | binding [3] | Molecule |
| --- | --- | --- | --- |
| binds | – | – | EFCAB5 (from UniProt A0JP43 1-1406) |
| – | binds | – | AK9 (from UniProt G3UYQ4 1-1894) |
| – | binds | – | AK7 (from UniProt Q9D2H2 1-614) |
| binds | – | – | RGS22 (protein, UniProt G3UYX5 1-1258) MPEKRLSAEPPEVTEEEFENYLATDNFLVDYFNEFLSLPTFPEAIRFNVDYGVFEVVNDAPQLLEKQLKKILQNQQPRNPIYDVVRKGKSDSKSTQKSVPCEDEAINVNYSIMCLKREQGINWIKRERLPAFLESDCYFEYRLAKLISQATWSSTGMNFIVGTNFTPWILRRPPAPPPPSTDEDNYMIMKKFYVSLGQASYTQTKDWFTLAKESENTVTMASLPCCIPHHQTASPVIATASEIFDDGVHPRTIKSLSKSSKAVSELDEEEEGSISMKDSPSQALLRVYLEKKGGKERNLTLHFSSVEEFLDAYIIFILREAIQHITGQSLSDTPEYINYYKVSHVIFDKVPPVPSNKAIVSPPVEMVEEISKDRLENVSLSSESESIGPESRADWCISHRTYDIGNRREFERFKKFLKGTLGERYWWLWMDIERLKVLKDPERHQRHLEKMKKCYLVSSGERYLSAEILSKFKLLHGSRWTADHLKNIQAEVLKPLLLYWAPRFCVTHSASAKNASTELKFWRLRQEKPRKDVDPFPQMATLLPLRPKSCIPQTPEVQGEEINLFQPSKFKKLSKINAGTQQLGRSEPLNAVSSKDGGLEKGSKRLPESTTVVRLTSFTDISECLKPQLERKYTYTEEHNVKTVSNVGALGGFDMENLLQSLYVENRAGFFFTKFCENSGNKLWKHSVYFWFDLQAYHQLFYQETLQPFKVCKQAQYLFATYIAPSASFDIGLHQEGKKDIYMKIQPPFEDLFDTAEEFILLSLLEPWTQMVMSDKMAYKKVELQEETRQLDSACFRKLHALHKETISKKAEDTTGYAMAKLSLSDVSKQTEYWLNVPEGYKHFTFTDLLNNKLEFEHFRQFLESHSSSLDLMCWIDIEQFRRIIFKDQKQREEKSIYIKNKYLNKKYFFGPRSPASLHQQNQIMLLSGGWGRILHEQLDASVLVEIQKHVLNRLENVWLPLFLSSEQFASRQKIKTQMKDIADELLLQRHDRKIGVWKPVESKWISSSCEIIAFRKALLNPVIARQFQRFVALKGDLLENGVLFWQEVQKFKDLCHSHCDESIIHKKITTIINCFINSYIPPALQIDIPVEQAQKILEHRKELGPYVFREAQMTIFGVLFKFWPQFCEFRKNLTDEKIMSVLERRQEHKQKRKASDTEEDKAGKSGVKQYASTTGSLTKPVLGSESLLVLQSYGRQPTWCYSKYIEALEQERILLKIQEEVERKMFTGTSSFTNLLKPSTGSALSLKKNVSLHSIQR |
| – | – | binds | MDH1B (protein, UniProt Q5F204 1-500) MAKFVIAGKANCPYYAKAELLADYLQKNLPDFRIFKITQHPDKWEDWVEDVCERNMWDHRTSPIIWRELLDRGGRGLLLGGYNEFLEHAQLYYGVTSNMTTELMMVIAKENMQTHTEQQLDKETMKDLISPLQVWIASAGTYVCCHLIPLLLSGEVFGMHTEISLTLFDQEQREDCLRSIVMETQDLASPVLRTVSFCTTVKEAFLQAQVIIILDDSTEEEVYSLESCLRSRVPLCRLYGYLIEKNAHKSVKVIVGGKNFVNLKTTLLMQYAPNIASNIIAVALGVEGQAKAVLARKMKTTSANIKDVIIWGNITGNNYVDLRKAKVYNYESAVKGPPGHYHSVLSLIFDREWITKEFVQTLKILSSTGKQFGGILAAHSIATTLKYWYHGSPPGEIVSLGVMSEGQFDIPEGIVFSMPVKFENGTWVVLTDLEDISLSEKTLSRLTGDLIQEKLVACGDLLTFQPIEEDPKDNEPSNTGMNEEKEQPGSDDSDEKNEDQ |
| binds | – | – | AKAP14 (protein, UniProt Q3V0I7 1-536) MSNKKKFPNQKAKIVENTSTAKTKKPEAPEPKHVTEPKDSKSVEDPKIPVTDQKEKKTVTTIAEPKDKKSETEPKEKKTVTISDPKAKKPAIEKDKRTVTFVTEVKDKRIVTDTKENRIASIDTKEKVPVVVPEVKEKRVQLLDPKEKVAVLPTTPIGSVAHVPHAPPVAHTEHAAPAKPVAPAKPVAPVAPAKPVAPVAPAKPVVPVAPAKPVAPAAPVTSVVRAVPAAPVTPVAPVAPAVPVVPAAPVAPAAPVVPAAPVAPVAPALPVAPVAPVAPALPVAPAVPVAPAVPVAPVVPEVKQKIPVSEVKGKKEVPLRVPELKEIKASSFAPEIKVKKVGSEIKQKAHVKDVKEKKIVPEVKEKKPVVVKKKDGASEVARTVVDGVMAAAVEMVEEARNPIKNIKWLTHGEFTPEKGRKQIEKFVSTWEFQNRWVYYADFIEKKDLIHSYHYIYRVRWSAPTAVRPMARVSANALFTIKFNKSKPADMPVDVSYIFENSELLQRPGEIRFREQWLRDITETKHILLESIPFKVV |
| binds | – | binds | CFAP251 (protein, UniProt E9Q743 1-1299) MSDTEENPLEESRESGEMEEEKEEKKEEEEEEEEGEKEKEEEEEEEKGKEEEKEEEKEEGKEEEKKEEEEEKGKKEEEEEEEEEGKGKEEEKEEEKEEEEKEEEKEKEEEEEEEGKGKEEEEEGKEEEEEEKEEEEKEEEKEEEEEEEEEKEEYNPSFEEDALQQSLTEGSLSWEESQEDGEGLEEWVEKEEQREGEEVRGEEESEVRGREEEEGWEEEKSGEEEKSEESERSKERGGEEEGQEKEEAEHEGEREEGREEEEKEKSVEREEEEEEEDTETTETKAGRAKEEKKEKQNKTALVDNIVISHEPPRSSSSLADSPEVSQIYKDNSMKVDDTEEASQKPEDILAQGKDEARLSLEERRKLFQSKGLSAEESLVSVSTEDTLFQKEEDSKVYPLSMTWSFGWNSSLPVYYMREDRRVILYTCAHTAIMYDVVRNTQYHLQGHPNIISCLCVSEDRRWIATADEGPDCLIIIWDSFTGIPVHTIFDSCPEGNGMRSIAITRDSKFLATISDSATQKVCIWKWTLAVETPACTLELPKEYGFQDNLVFNPANNKELVSNSKTQAIYYCWFEDKGILAHSAPVLTEKTFNKLVGKFSQSVFHLKLPQVLSATKEGKLVVWDIHYPSSTSSSAISAFPFIKPRKLVHLQKEAITVLMTIDSYIVTGDIKGNIKFYDHTLSVVNWYSNFKLGAIRTLSFSKTIPSLPTEKSNLPTDCTLRGDLFVVRNFIIGTFDATVYHMTVDGTKLEKLFVEPRDAVYAVSCHPYQPLIAVGSVCGMIKVWDFEKKVYLFSRTFEKGLGVQCLTYNPEGALLGAGFTEGTVYILDAMSLENESPEPFKYSKSSVSHCCFSHDSNYMATADVNFTVAVYMVVVKNGQRVWEYLARLRSHQNSIQSLLFGVHLDSNEPRLLSLGKDRFLIEYNLVKSCKDHLDVLDVHRTDQGNYPTCMIWYPPLTKELFLLICNSGYKVKLFNATTKMCRKTLLGPAYGSPIEHAQVLPVKSTLELQKRYLVFINKDKVGLQILPVDGNPHKTCAIVCHPNGVAGMALSYDGRFAFTAGGQDRSVVQWKINLGALEAAVSLGGEDLTPFYGLVSGGREGKFYRELEDYFYYSQIRSQGIDTMETRQVSEHICLSELPFVMRAIGFYPSEEKIEDMFNEIKFSEYVETGKLIDKINLPDFLKVYLNHRPPFGNTMDGIQNSFNVLGYTNSEGKKAIRREDFLNLLLTKGEHMTEEEMIDCFSTLFGLTPEGWKSEPAATCINGPEICLQKELPEEITAEIFTTEILGLTLSDSSEQLIQ |
| – | – | binds | BBS9 (protein, UniProt Q811G0 1-885) MSLFKARDWWSTVLGEKEEFDQGCLCLADVDNSGNGHDKIIVGSFMGYLRIFSPHSVKAGGGPQAEDLLLEVHLRDPVLQVEVGKFVSGTEMLHLAVLHSRKLCVYSVSGTLGNVEHGNQYQIKLMYEHHLQRTACNMTYGPFGGVKGRDLICIQSLDGMLMVFEQESYAFGRFLPGFLLPGPLAYSPRTDSFITVSSCRQVESYKYQVLAFATDADKKQEMEQQKLGSGKRLVVDWTLNIGEQALDICIFPLNQSASSVFVLGERNFFCLKDNGQIRFMKKLGYNPSCFLPYCSVSEGTINTLIGNHNHMLHIYQDVTLKWATQLPHVPVAVRVGCFHDLKGVIVTLSDDGHLQCSYLGTDPSLFQAPKVESRELNYDELDVELKELQKIIKDVKLQGVWPLTEQEDDLKVSASVSSTLDSVSQATNVEPGADSVPSITVKITLQNRVVLQKVKLSIYVQPPLQLTCDQFTFDFTVPDMTSSVAFSVYLKRNYTPSELEGNAVVSYSRPTDRNPDGIPRVVQCKFRLPLKLICLPGQPSKTASHKLTIDTNKSPVSLLGLFPDFANPSDDDQVNVMGFRLLGGARVTLLASRTSQRYRIQSEQFEDLWLITNELILRLQEHFEKQGTKDFSCSFSGCVPLQEYFELIDHHFELRINGKKLEELLSERAVQFRAIQRRLLTRFRDKTPAPLQHLDTLLDGTYKQVIALADAIEENQDRLLQSFSGLKSATHLLILLIRLWQRLSADQTAILEAAFLPLQEDTQELGWEETVDAAIAYLLKTCLSKSSKEQALNLSSQLNIPKDTSRLKKHITLLCDRLAKGGRLCVSTDAAAPQAMVVPGGCTPIPESDLEERSLDDSTELFTNHKHLMTEPPMPEVSARQGVLE |
| – | – | binds | CATIP (protein, UniProt B9EKE5 1-520) MGDVTRGEWVVWGLEAGPGETASLHHPGLEDMLLFFPETLAILSDTGEPQGELTIEVQRGKYKDDIGILTHCLLVHASSRGFLDKSLCGSSLLGYLNNNLELMEQHSQEFIKFPVLPMERKMSVLKQDGQFVVTRSVKEGEETKTGVSVFPYKTFKGFVSSAANVVLLRVMAWQQSVPSGARFLALDSEGKLCHCTYKSLGFQTIQVGNQQAKMFIVEQTIHSEEGIPFSCQYYLLPDGHLAKRVQVGSPGCCIITKMPLIREEDVIESPPTFDKKPLVWGEDLELYSKFLDRKEQLRLSHASYLRHHPEAQALVSDFLLFLLLRRPEDVVTFAAEHFRPFAALRSPIPALRSSHQPSPFRTLENEEEEEAKEEEEKEEEEEEEEEIAGEIEGEEEEEEIEEGDDYLYMDEDEDIEDYTYYENYYYNYDEEVDSYDDVNNYDDDDIANVDDNDDIDNYDDDNDDDDDDDDNDDEDDVDDNDDDDVDKVRAKVDNLSVDNDDNDVVNSDNVDVDNDNNNQG |
